Data on 1 molecule can be found in publication PMC4112624.

This experiment has as its target bZIP63 (UniProt B9DGI8). The experiment in a line: split reporter; BiFC with split eYFP (pUC-SPYNE / pUC-SPYCE), transiently coexpressed in onion epidermal cells by particle bombardment; confocal microscopy after 48 h on MS medium.

No constants are given. Whether binding was seen depends on the method and setting. In cells and extracts the contact can be indirect. Some results given as binding are weak or reduced against the parent protein; the word gives no strength.

B1: bZIP63 (protein, UniProt B9DGI8 1-314)
chain: MEKVFSDEEISGNHHWSVNGMTSLNRSASEWAFNRFIQESSAAADDGESTTACGVSVSSPPNVPVDSEEYRAFLKSKLNLACAAVAMKRGTFIKPQDTSGRSDNGGANESEQASLASSKATPMMSSAITSGSELSGDEEEADGETNMNPTNVKRVKRMLSNRESARRSRRRKQAHLSELETQVSQLRVENSKLMKGLTDVTQTFNDASVENRVLKANIETLRAKVKMAEETVKRLTGFNPMFHNMPQIVSTVSLPSETSNSPDTTSSQVTTPEIISSGNKGKALIGCKMNRTASMRRVESLEHLQKRIRSVGDQ
Take B1: the binding result is given as “binds”.
